No end group written: not given here.

The data set can be described thus: general procedure: Fmoc solid-phase peptide synthesis; Rink amide resin (0.4 mmol/g); Rink amide MBHA resin; HCTU/NMM. The settings on record: whole synthesis, scale of the general procedure 0.1 mmol; for final HPLC purity: Vydac analytical C18 RP-HPLC.
The mark [1] stands for this setting: one disulfide bridge, sequence written open.

Take LGRLSQELHRLQTYPRTYPRTNTGSNTY-NH2: the “final HPLC purity” value is recorded as 98.6% and the isolated yield is recorded as 55%.
Turning to “CLGRLSQELHRLQTYPRTYPRTNTGSNTYC-NH2 (cysteine pairing not given here)”, under setting [1], the “final HPLC purity” value was found to be 97.5% and the isolated yield is on record as 40%.
For the substance HAIYPRH-(NH2), the “final HPLC purity” value is on record as 98% and the isolated yield is 70%.
